# Hit rate of the full screen: of about 400,000 compounds, about 13,000 (3.2%) were called active. The shares of active, inactive and inconclusive entries below differ from those in the screen. Calls follow the shape of the dose curve; as a rule, active = well fitted cell-killing curve with a large enough effect; inconclusive = small, poorly fitted or top-dose-only effect, or effect the other way; inactive = flat fitted curve, though single readings scatter. Where the call is inconclusive, the potency comes from a doubtful curve fit.
# Assay: qHTS assay for MDR1-selective chemotherapeutics: Primary screen using the drug-selected MDR subline cells KB-V1; also: nearly all actives have a fitted effect of over 60% in size
# Settings: KB-V1 MDR cells viability, CellTiter-Glo, 72 h; activity change, negative = cytotoxicity: at 46.1 µM (top of the series)
# In short: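 KB-V1 MDR subline cells in DMEM (phenol-red free, 10% FBS) exposed to compounds in qHTS concentration series for 72 h at 37 degrees C. Viability read by CellTiter-Glo luminescence; concentration-effect curves fitted after normalization and correction.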
# % is scaled to controls: 0 for no effect and ±100 for the full control effect; potency is read from the fitted curve at half-maximal effect.
SMILES,"activity change, negative = cytotoxicity",Potency
CC(C)(C)NC(=O)c1oc2ccccc2c1NC(=O)c1ccc(F)cc1,inactive: -11.1%,–
COC(=O)[C@@]12C[C@@H](CC(=O)NCc3ccc(C)o3)C(=O)N(Cc3ccccc3)C1=CCC(C)(C)C2,–,active: 18.4 µM
COc1ccc(C(=O)Nc2ccc3nc(C)sc3c2)cc1OC,–,"inconclusive: 20.6 µM [cytotoxic, partial curve, poor fit]"
OC(c1ccccc1)c1nc(-c2ccc(Cl)cc2)cs1 (stereo unspecified),–,"inconclusive: 23.1 µM [cytotoxic, single point]"
COc1cccc(CN(Cc2ccco2)S(=O)(=O)c2ccc(S(=O)(=O)NCc3ccccc3)cc2)c1OC,inactive: -28%,–
Cc1ccc(C(C)C)cc1OCC(=O)NC1CCCCCCC1,–,"inconclusive: 16.4 µM [cytotoxic, single point]"
COc1ccccc1CNC(=O)c1cc(C)nc2ccccc12,–,"inconclusive: 18.4 µM [cytotoxic, single point]"
COc1ccc(CCN2C(=O)CN(C3CCC(C)CC3)C(=O)C2c2ccc(OC(C)C)c(OC)c2)cc1OC (stereo unspecified),inactive: -6.27%,–
C/C(=N\Nc1ccc(Cl)c(Cl)c1)c1ccc(-n2ccnc2)cc1,inactive: -7.14%,–
CCOC(=O)c1ccc(NC(=S)NNC(=O)COC)cc1,–,"inconclusive: 0.651 µM [cytotoxic, full curve, poor fit]"
C#CCSc1nnc(CSc2nc3ccccc3s2)n1-c1ccccc1,–,"inconclusive: 18.4 µM [cytotoxic, partial curve, poor fit]"
Cc1ccc(-c2nc3ccc(Br)cn3c2Cc2ccccc2C(F)(F)F)cc1,–,"inconclusive: 29.1 µM [cytotoxic, single point]"
CCCCCN(C(=O)NC(=O)Nc1nncs1)S(C)(=O)=O,inactive: 2.45%,–
Cc1ccc(O)c(C(=O)c2cc(C(=O)NCCc3ccccc3)c(=O)n(CCc3ccccc3)c2)c1,inactive: -12.1%,–
COc1cccc(C2CC(c3cccs3)=NN2C(=O)CSC2=NCCS2)c1OC (stereo unspecified),–,"inconclusive: 8.2 µM [cytotoxic, partial curve]"
C/C(CC(=O)N(C(C)C)C(C)C)=N\NC(=O)COc1ccc(Cl)cc1Cl,–,"inconclusive: 29.1 µM [rising, single point]"
COc1ccc(CN(C)C(=O)Cc2ccsc2)c(OC)c1OC,inconclusive: 3.89%,–
c1cc(CNCCN2CCNCC2)ccn1,–,"inconclusive: 23.1 µM [rising, single point]"
COc1cc(NS(=O)(=O)c2ccc3ccccc3c2)c2ncccc2c1,–,"inconclusive: 2.06 µM [cytotoxic, full curve]"
CC(C)c1ccc(OCc2cc(=O)n3c(-c4ccccc4)csc3n2)cc1,–,"inconclusive: 29.1 µM [cytotoxic, single point]"
CC(C)(C)c1cc(CCC(=O)NNC(=S)NC(=O)c2ccccc2)cc(C(C)(C)C)c1O,–,"inconclusive: 1.46 µM [cytotoxic, partial curve, poor fit]"
CCCOC(=S)Nc1ccccc1,–,"inconclusive: 25.9 µM [rising, single point]"
O=C1c2ccccc2CCC12OC2c1ccncc1 (stereo unspecified),inactive: -4.97%,–
O=C(NCC1CCCCC1)C1CCN(C(=O)NC2CCCCC2)CC1,–,active: 16.4 µM

# Some of the entries above in another layout.
SMILES | activity change, negative = cytotoxicity | Potency
COc1ccc(C(=O)Nc2ccc3nc(C)sc3c2)cc1OC | – | inconclusive: 20.6 µM [cytotoxic, partial curve, poor fit]
OC(c1ccccc1)c1nc(-c2ccc(Cl)cc2)cs1 (stereo unspecified) | – | inconclusive: 23.1 µM [cytotoxic, single point]
COc1cccc(CN(Cc2ccco2)S(=O)(=O)c2ccc(S(=O)(=O)NCc3ccccc3)cc2)c1OC | inactive: -28% | –
Cc1ccc(C(C)C)cc1OCC(=O)NC1CCCCCCC1 | – | inconclusive: 16.4 µM [cytotoxic, single point]

# (list continues)

SMILES,"activity change, negative = cytotoxicity",Potency
Cc1ccc(S(=O)(=O)c2nnn3c2nc(NCc2ccccc2Cl)c2sccc23)cc1,inactive: 2.06%,–
O=c1[nH]c2ccccc2nc1NCCN1CCOCC1,–,"inconclusive: 29.1 µM [rising, partial curve, poor fit]"
Cc1cc(N2CCCC2=O)cc(C)c1S(=O)(=O)NCCOc1ccccc1,–,"inconclusive: 29.1 µM [cytotoxic, single point]"
CCOC(=O)Oc1ccc2oc(C)c(C(=O)OCCOC)c2c1,–,"inconclusive: 29.1 µM [cytotoxic, single point]"
CCS(=O)(=O)c1ccc2oc(SCC(=O)NC(C)C3CC4CCC3C4)nc2c1 (stereo unspecified),–,"inconclusive: 29.1 µM [cytotoxic, single point]"
Cc1ccc(-c2nnc(OCc3cccnc3)c3ccccc23)cc1,–,active: 16.4 µM
COc1ccc(C(=O)NNC(=S)NC(=O)c2cccs2)cc1,inactive: 1.32%,–
O=C1CN(C(=O)c2cccc([N+](=O)[O-])c2)CC(=O)N1,–,"inconclusive: 16.4 µM [rising, single point]"
CCCc1nnc(NC(=O)CCC(=O)N2CCN(Cc3ccc(OC)c(F)c3)CC2)s1,inactive: -10.2%,–
O=C(NC1CCCC1)c1ccc([N+](=O)[O-])s1,–,"inconclusive: 29.1 µM [cytotoxic, single point]"
O=C(COC(=O)CCNS(=O)(=O)c1cccs1)Nc1ccccc1,–,"inconclusive: 29.1 µM [rising, single point]"
Cc1cc(C)c2ccc(Cl)cc2n1,inactive: 9.61%,–
O=C(NCc1ccco1)c1cc2c(s1)CSC2,–,"inconclusive: 3.26 µM [rising, partial curve, poor fit]"
CC(=O)COc1ccc2c(C)c(-c3ccccc3)c(=O)oc2c1,–,"inconclusive: 20.6 µM [cytotoxic, single point]"
Cc1ccc(N(CC(=O)NC2CCCCC2)C(=O)CNC(=O)c2ccco2)c(C)c1,inactive: -8.24%,–
C=CC[C@@H](CC(=O)N(CCO)Cc1ccccc1)C(=O)NC[C@H](OC(=O)[C@@H](CC=C)Cc1ccc(F)cc1)c1ccccc1,–,active: 16.4 µM
COCCCNC(=O)c1ccc2c(c1)NC(=O)C(C(C)C)N2 (stereo unspecified),–,"inconclusive: 16.4 µM [rising, partial curve, poor fit]"
COc1ccc(-n2c(=S)[nH]c3cc(C(=O)N(C)Cc4ccccc4)ccc3c2=O)cc1,–,"inconclusive: 16.4 µM [cytotoxic, partial curve, poor fit]"
CC(C)CCn1c(NCCc2ccccc2)nc2c1c(=O)n(C)c(=O)n2C,–,active: 13 µM
Oc1c(Cl)cccc1C=Nc1cc(C(F)(F)F)ccc1N1CCCC1,–,"inconclusive: 29.1 µM [rising, single point]"
O=C(CNc1ccc(Br)cc1)NC(=O)NC1CCCCC1,–,"inconclusive: 23.1 µM [cytotoxic, partial curve, poor fit]"
CCCCCn1c(=N)n(CC(O)COc2ccccc2OC)c2ccccc21 (stereo unspecified),–,"inconclusive: 29.1 µM [cytotoxic, single point]"
O=C(NNC(=O)C1CC(c2cccs2)=NO1)Nc1ccccc1 (stereo unspecified),–,"inconclusive: 29.1 µM [rising, single point]"
CCOc1ccccc1CNC(=O)CN1C(=O)CCc2cc(S(=O)(=O)N3CCCCC3)ccc21,inactive: -1.3%,–

SMILES,"activity change, negative = cytotoxicity",Potency
COc1ccc(C)cc1NC(=O)CSc1ccc(Cl)cc1,–,"inconclusive: 29.1 µM [cytotoxic, single point]"
CCCc1ccc(-c2cc(C(=O)N3CCN(c4ccccn4)CC3)c3ccccc3n2)cc1,–,"inconclusive: 23.1 µM [cytotoxic, single point]"
CCn1c(CNC(=O)c2cccc(C)c2)nc2ccccc21,inactive: 20.4%,–
CCc1nnc(NC(=O)CSc2nnc(C3CCCCC3)n2-c2cccc(Cl)c2)s1,–,active: 4.11 µM
Cc1ccc(Cn2nc(C)c(NC(=O)c3cc(-c4ccco4)on3)c2C)cc1,inactive: 0%,–
O=C(OCCCc1cc2ccccc2c(=O)o1)c1ccc(C(F)(F)F)cc1,–,"inconclusive: 13 µM [rising, partial curve, poor fit]"
O=C(CSc1ccc(-c2cccnc2)nn1)Nc1ccc(Br)cc1,–,"inconclusive: 6.51 µM [cytotoxic, partial curve]"
COc1ccc(N(C)S(=O)(=O)c2ccc3c(c2)CCC(=O)N3)cc1,–,"inconclusive: 23.1 µM [cytotoxic, single point]"
CCCCNC(=O)c1nc(C2CCN(S(=O)(=O)c3ccccc3C(F)(F)F)CC2)oc1-c1ccccc1,inactive: 26.2%,–
CC1CCN(C(=O)Cn2c3ccc(F)cc3c3nc4n(c(=O)c32)CCCS4)CC1,inactive: 0%,–
CC(=O)N1CCc2c(sc3c2c(=O)n(Cc2ccccc2)c(=O)n3CC(=O)Nc2ccc(C)c(F)c2)C1,inactive: -6.92%,–
CN(C)c1ccc(/C=C/c2cc[n+](C)c3ccc4ccccc4c23)cc1,–,"inconclusive: 29.1 µM [cytotoxic, single point]"
COc1ccc(OCC(O)Cn2c(Nc3cccc(C)c3)nc3c2c(=O)n(C)c(=O)n3C)cc1 (stereo unspecified),inactive: 0%,–
O=C(c1cc(C2CC2)nn1-c1ccccc1)N1CCN(S(=O)(=O)c2ccc(F)cc2)CC1,–,"inconclusive: 14.6 µM [cytotoxic, partial curve, poor fit]"
Cn1c(Oc2ccc(F)cc2)c(C=O)c2ccccc21,inactive: 4.44%,–
CC#CCN1C=C(C(=O)OCC)C(C)N(Cc2ccc(Br)cc2)S1(=O)=O (stereo unspecified),inactive: -2.85%,–
COc1ccc(CCNC(=O)CCC(=O)c2cccs2)cc1OC,–,"inconclusive: 13 µM [rising, partial curve, poor fit]"
CCOc1ccc(S(=O)(=O)N2CCCCC2)cc1NC(=O)Cc1cccs1,–,active: 23.1 µM
COc1ccc(CN2C(=O)C(NC(=O)c3ccccc3OC)(C(F)(F)F)N=C2c2ccccc2)cc1 (stereo unspecified),–,"inconclusive: 29.1 µM [cytotoxic, single point]"
COc1ccc(NS(=O)(=O)c2ccc(NC(=S)NC(=O)c3cccc(F)c3)cc2)nn1,–,"inconclusive: 20.6 µM [cytotoxic, single point]"
CCc1nc(Nc2ccc3c(c2)OCO3)c2oc3ccccc3c2n1,–,"inconclusive: 29.1 µM [cytotoxic, single point]"
CCN(CC(=O)Nc1ccccc1C(F)(F)F)C(=O)c1ccc(=O)n(Cc2ccccc2)n1,–,"inconclusive: 8.2 µM [cytotoxic, partial curve]"
CCC(C)n1c(SCC(=O)Nc2ccccc2C(F)(F)F)nc2ccsc2c1=O (stereo unspecified),–,active: 23.1 µM
